Laboratory results from article PMC7094076.

Sequences of proteins named here, by UniProt entry; tags and fusion partners are left off. A change or cut given only in a name is not applied to a line headed by its entry.
UniProt F4JZD0: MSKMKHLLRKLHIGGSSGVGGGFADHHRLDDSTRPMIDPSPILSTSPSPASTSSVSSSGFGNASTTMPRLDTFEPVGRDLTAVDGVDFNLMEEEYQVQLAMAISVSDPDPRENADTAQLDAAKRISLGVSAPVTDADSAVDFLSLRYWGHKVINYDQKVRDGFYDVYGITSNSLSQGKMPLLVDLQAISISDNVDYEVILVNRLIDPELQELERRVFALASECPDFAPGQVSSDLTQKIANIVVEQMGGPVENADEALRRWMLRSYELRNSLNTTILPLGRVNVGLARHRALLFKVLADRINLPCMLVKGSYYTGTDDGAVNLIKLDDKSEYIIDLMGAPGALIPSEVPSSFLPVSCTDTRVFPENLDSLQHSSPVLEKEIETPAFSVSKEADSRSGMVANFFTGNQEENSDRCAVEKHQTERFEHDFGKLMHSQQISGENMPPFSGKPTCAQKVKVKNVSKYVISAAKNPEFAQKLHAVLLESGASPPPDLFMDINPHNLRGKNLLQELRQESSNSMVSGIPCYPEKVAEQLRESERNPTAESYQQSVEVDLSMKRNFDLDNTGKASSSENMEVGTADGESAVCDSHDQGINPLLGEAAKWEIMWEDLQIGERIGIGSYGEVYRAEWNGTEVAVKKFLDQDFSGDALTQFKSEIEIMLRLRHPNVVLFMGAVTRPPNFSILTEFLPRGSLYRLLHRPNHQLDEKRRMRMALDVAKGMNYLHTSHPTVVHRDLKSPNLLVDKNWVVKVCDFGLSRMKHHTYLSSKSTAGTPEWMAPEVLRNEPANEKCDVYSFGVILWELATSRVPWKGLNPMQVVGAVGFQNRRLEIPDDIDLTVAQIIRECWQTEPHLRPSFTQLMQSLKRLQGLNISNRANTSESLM

Molecular target: T1, AtNFXL1 (Arabidopsis (endogenous in WT plants)) (UniProt Q9SY59)
T1 sequence: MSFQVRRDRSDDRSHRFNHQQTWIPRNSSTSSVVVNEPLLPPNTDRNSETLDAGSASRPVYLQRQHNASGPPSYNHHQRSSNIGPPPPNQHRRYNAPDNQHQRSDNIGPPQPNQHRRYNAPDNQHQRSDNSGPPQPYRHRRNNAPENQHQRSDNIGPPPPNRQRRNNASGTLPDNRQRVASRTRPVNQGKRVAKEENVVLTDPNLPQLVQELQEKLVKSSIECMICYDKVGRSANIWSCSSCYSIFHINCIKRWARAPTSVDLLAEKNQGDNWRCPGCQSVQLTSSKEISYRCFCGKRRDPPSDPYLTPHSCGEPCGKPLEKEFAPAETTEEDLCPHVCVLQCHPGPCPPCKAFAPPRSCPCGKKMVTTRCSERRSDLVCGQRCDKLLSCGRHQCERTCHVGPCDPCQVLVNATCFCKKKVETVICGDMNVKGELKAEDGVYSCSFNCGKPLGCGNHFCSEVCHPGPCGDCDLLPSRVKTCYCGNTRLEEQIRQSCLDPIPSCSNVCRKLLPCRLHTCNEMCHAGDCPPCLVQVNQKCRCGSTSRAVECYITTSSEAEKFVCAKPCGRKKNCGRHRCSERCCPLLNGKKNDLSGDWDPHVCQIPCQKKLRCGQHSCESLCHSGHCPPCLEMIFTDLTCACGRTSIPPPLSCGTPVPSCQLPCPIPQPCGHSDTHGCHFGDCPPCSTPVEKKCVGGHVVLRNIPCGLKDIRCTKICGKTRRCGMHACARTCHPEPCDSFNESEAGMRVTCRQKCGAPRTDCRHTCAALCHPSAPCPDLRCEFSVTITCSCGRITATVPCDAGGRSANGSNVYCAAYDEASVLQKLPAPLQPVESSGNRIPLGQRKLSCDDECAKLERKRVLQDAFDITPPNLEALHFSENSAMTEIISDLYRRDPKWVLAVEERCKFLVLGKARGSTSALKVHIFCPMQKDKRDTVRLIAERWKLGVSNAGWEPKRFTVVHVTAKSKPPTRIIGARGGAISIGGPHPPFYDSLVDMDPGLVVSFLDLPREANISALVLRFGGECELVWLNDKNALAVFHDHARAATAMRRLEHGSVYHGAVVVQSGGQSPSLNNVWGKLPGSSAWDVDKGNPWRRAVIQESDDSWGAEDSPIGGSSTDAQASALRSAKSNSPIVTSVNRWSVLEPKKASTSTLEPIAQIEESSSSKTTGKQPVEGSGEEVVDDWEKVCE
Test: affinity purification with mass spectrometry

- binding: binds
Substance: MAPKKK δ-1 (MKD1) (from UniProt F4JZD0)

These are yes or no findings as the source states them, for the method shown. Binding seen in cells or lysates may run through a third protein. Here binding means that the protein was enriched with, or labelled near, the bait; the list need not be complete.
